These are yes or no findings as the source states them, for the method shown. Some entries that bind do so weakly or less than the wild type.

Amino acid sequences for entries named in this document (tags omitted). A change or cut given only in a name is not applied to a line headed by its entry.
UniProt Q9NZQ7: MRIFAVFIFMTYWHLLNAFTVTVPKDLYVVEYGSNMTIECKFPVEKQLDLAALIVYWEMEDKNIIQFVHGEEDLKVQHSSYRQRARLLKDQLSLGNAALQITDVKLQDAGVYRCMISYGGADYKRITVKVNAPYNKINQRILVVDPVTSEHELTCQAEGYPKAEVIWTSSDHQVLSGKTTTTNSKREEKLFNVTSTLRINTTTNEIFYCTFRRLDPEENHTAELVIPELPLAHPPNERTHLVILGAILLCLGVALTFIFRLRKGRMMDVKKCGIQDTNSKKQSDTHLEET

In assay [1] the target is T1, Europium-conjugated human PD-L1 (human, UniProt Q9NZQ7 19-238, limits assumed, Europium conjugate (site not stated)).
T1 construct: also called Europium-human PD-L1; PD-L1 (HTRF donor protein)
Kind of assay: HTRF blocking assay: Europium-human PD-L1 with Alexa-647 human PD-1 as the blocked ligand, antibody titrated.

Assay [2] addresses T1, Europium-conjugated human PD-L1. Put plainly: HTRF competition assay: Europium-human PD-L1 with Alexa-647-conjugated Mab 3-16 as competitor, unlabelled antibody titrated. On the technique in general: In TR-FRET formats the signal depends on donor and acceptor labels being close together.
Assay [3] addresses cynomolgus PD-L1 (Sino biological, 90251-C08H) (cynomolgus) (UniProt G7PSE7). Put plainly: BLI (Octet Red). In general terms: Biolayer interferometry detects binding as a change in optical thickness at a sensor tip.
For assay [4], the target named is T1, Europium-conjugated human PD-L1. Put plainly: HTRF competitive binding assay on Eu-human PD-L1, competitor Alexa-647-Mab 3-16.
Assay [5] has the same target. Put plainly: HTRF competition assay: Europium-human PD-L1 with Alexa-647-conjugated Mab 3-16 as competitor, unlabelled Mab 3-16 titrated.

B1: chimeric anti-human PD-L1 antibody Mab 1-01 (antibody, human IgG1, kappa, V domains shown)
VH: EVQLQQSGPELVKPGASVKMSCKASGYSFSGYFLNWVKQSHGKSLEWIGRINPSNDDTVYSQKFKDRATLSLDRSSGTVHMELRSLTSEDSAVYYCARFGHASWYFDVWGAGTTVTVSS
VL: QIVLTQSPAIMSASPGEKVTMTCSARSSVIYMSWYQQKPGSSPRLLIYDTSHLASGVPVRFSGSGSGTFYSLIISRVEAEDAATYYCQQWSTYPLTFGAGTRLELNR
notes: Mouse variable domains on human IgG1 / kappa constant regions
In the case of B1, in assay [1], the binding entry was “binds”.

B2: chimeric anti-human PD-L1 antibody Mab 1-02 (antibody, human IgG1, kappa, V domains shown)
VH: EVQLQQSGPELVKPGASVKMSCKASGYSFSGYFLNWVKQSHGKSLEWIGRINPSNDDTVYSQKFKDRATLSLDRSSGTVHMELRSLTSEDSAVYYCARFGHASWYLDVWGAGTTVTVSS
VL: QIVLTQSPAIMSASPGEKVTMTCSARSSIIYMSWYQQKTGSSPRLLIYDTSHLASGVPVRFSGSGSGTFFSLIISRMEAEDAATYYCQQWSTYPLTFGAGTRLELKR
notes: as for B1
Regarding B2, the binding entry in assay [1] is on record as “binds”.

B3: Hum-1 (antibody, IgG1, V domains shown)
VH: EVQLVESGGGLVQPGGSLRLSCAASGFTFGGFGMNWVRQAPGKGLEWVSYITGDSSTIYYADRVRGRFTISRDNAKNILYLQMNSLGAEDTAVYYCVRGPPGTWAYWGQGTLVTVSS
VL: EIVLTQSPATLSLSPGERATLSCRASESVEFYGTTLVQWYQQKPGQAPRLLIYGASNVESGIPARFSGSGSGTDFTLTISSLEPEDFAVYFCQQIRKVPWTFGQGTKVEIK
As for B3, the binding entry in assay [2] is “binds”.

B4: Hum-11 (antibody, IgG1, V domains shown)
VH: EVQLVESGGGLVQPGGSLRLSCAASGFTFGGFGMNWVRQAPGKGLEWVSYITGDSSTIYYADRVRGRFTISRDNAKNILYLQMNSLGAEDTAVYYCVRGPPGTWAYWGQGTLVTVSS
VL: EIVLTQSPATLSLSPGERATLSCRASESVEFYGTTLVQWYQQKPGQAPRLLIYGASNVESGIPARFSGSGSGTDFTLTISSLEPEDFAVYYCQQIRKVPWTFGQGTKVEIK
On to B4, for which the binding entry in assay [2] is given as “binds”.

B5: Hum-8 (antibody, IgG1, V domains shown)
VH: EVQLVESGGGLVQPGGSLRLSCAASGFTFGGFGMNWVRQAPGKGLEWVSYITGDSSTIYYADRVRGRFTISRDNAKNILYLQMNSLRAEDTAVYYCVRGPPGTWAYWGQGTLVTVSS
VL: EIVLTQSPATLSLSPGERATLSCRASESVEFYGTTLVQWYQQKPGQAPRLLIYGASNVESGIPARFSGSGSGTDFTLTISSLEPEDFAVYYCQQIRKVPWTFGQGTKVEIK
B5: the binding entry in assay [2] is recorded as “binds”.

B6: Hum-2 (antibody, IgG1, V domains shown)
VH: EVQLVESGGGLVQPGGSLRLSCAASGFTFGGFGMNWVRQAPGKGLEWVSYITGDSSTIYYADRVRGRFTISRDNAKNSLYLQMNSLRAEDTAVYYCVRGPPGTWAYWGQGTLVTVSS
VL: EIVLTQSPATLSLSPGERATLSCRASESVEFYGTTLVQWYQQKPGQAPRLLIYGASNVESGIPARFSGSGSGTDFTLTISSLEPEDFAVYYCQQIRKVPWTFGQGTKVEIK
As to B6, in assay [2], the binding result was “binds”.

B7: humanized anti-human PD-L1 antibody Hum-5 (antibody, human IgG1, kappa, V domains shown)
VH: EVQLVESGGGLVQPGGSLRLSCAASGFTFGGFGMHWVRQAPGKGLEWVSYITGDSSTIYYADRVRGRFTISRDNAKNSLYLQMNSLRAEDTAVYYCVRGPPGTWAYWGQGTLVTVSS
VL: EIVLTQSPATLSLSPGERATLSCRASESVEFYGTTLVQWYQQKPGQAPRLLIYGASNVESGIPARFSGSGSGTDFTLTISSLEPEDFAVYYCQQIRKVPWTFGQGTKVEIKR
Consider B7, for which the binding entry in assay [3], in assay [4] and in assay [2] was “binds” in each case.

B8: Hum-9 (antibody, IgG1, V domains shown)
VH: EVQLVESGGGLVQPGGSLRLSCAASGFTFGGFGMNWVRQAPGKGLEWVSYITGDSSTIYYADRVRGRFTISRDNAKNILYLQMNSLRAEDTAVYYCVRGPPGTWAYWGQGTLVTVSS
VL: EIVLTQSPATLSLSPGERATLSCRASESVEFYGTTLVQWYQQKPGQPPRLLIYGASNVESGIPARFSGSGSGTDFTLTISSLEPEDFAVYYCQQIRKVPWTFGQGTKVEIK
Consider B8, for which the binding result in assay [2] is reported as “binds”.

B9: Hum-3 (antibody, IgG1, V domains shown)
VH: EVQLVESGGGLVQPGGSLRLSCAASGFTFGGFGMNWVRQAPGKGLEWVSYITGDSSTIYYADRVRGRFTISRDNAKNSLYLQMNSLRAEDTAVYYCVRGPPGTWAYWGQGTLVTVSS
VL: EIVLTQSPATLSLSPGERATLSCRASESVEFYGTTLVQWYQQKPGQPPRLLIYGASNVESGIPARFSGSGSGTDFTLTISSLEPEDFAVYYCQQIRKVPWTFGQGTKVEIK
For B9, the binding result in assay [2] is “binds”.

B10: Hum-10 (antibody, IgG1, V domains shown)
VH: EVQLVESGGGLVQPGGSLRLSCAASGFTFGGFGMNWVRQAPGKGLEWVSYITGDSSTIYYADRVRGRFTISRDNAKNILYLQMNSLRAEDTAVYYCVRGPPGTWAYWGQGTLVTVSS
VL: EIVLTQSPATLSLSPGERATLSCRASESVEFYGTTLVQWYQQKPGQAPRLLIYGASNVESGIPARFSGSGSGTDFTLTISSLEPEDFAVYFCQQIRKVPWTFGQGTKVEIK
Regarding B10, the binding result in assay [2] was “binds”.

B11: Hum-12 (antibody, IgG1, V domains shown)
VH: EVQLVESGGGLVQPGGSLRLSCAASGFTFGGFGMNWVRQAPGKGLEWVSYITGDSSTIYYADRVRGRFTISRDNAKNILYLQMNSLGAEDTAVYYCVRGPPGTWAYWGQGTLVTVSS
VL: EIVLTQSPATLSLSPGERATLSCRASESVEFYGTTLVQWYQQKPGQPPRLLIYGASNVESGIPARFSGSGSGTDFTLTISSLEPEDFAVYYCQQIRKVPWTFGQGTKVEIK
With B11, the binding entry in assay [2] is listed as “binds”.

B12: Hum-4 (antibody, IgG1, V domains shown)
VH: EVQLVESGGGLVQPGGSLRLSCAASGFTFGGFGMNWVRQAPGKGLEWVSYITGDSSTIYYADRVRGRFTISRDNAKNSLYLQMNSLRAEDTAVYYCVRGPPGTWAYWGQGTLVTVSS
VL: EIVLTQSPATLSLSPGERATLSCRASESVEFYGTTLVQWYQQKPGQAPRLLIYGASNVESGIPARFSGSGSGTDFTLTISSLEPEDFAVYFCQQIRKVPWTFGQGTKVEIK
Consider B12, for which the binding entry in assay [2] was “binds”.

B13: humanized anti-human PD-L1 antibody Hum-6 (antibody, human IgG1, kappa, V domains shown)
VH: EVQLVESGGGLVQPGGSLRLSCAASGFTFGGFGMHWVRQAPGKGLEWVSYITGDSSTIYYADRVRGRFTISRDNAKNSLYLQMNSLRAEDTAVYYCVRGPPGTWAYWGQGTLVTVSS
VL: EIVLTQSPATLSLSPGERATLSCRASESVEFYGTTLVQWYQQKPGQPPRLLIYGASNVESGIPARFSGSGSGTDFTLTISSLEPEDFAVYYCQQIRKVPWTFGQGTKVEIKR
As to B13, the binding entry in assay [3], in assay [4] and in assay [2] was “binds” in each case.

B14: humanized anti-human PD-L1 antibody Hum-7 (antibody, human IgG1, kappa, V domains shown)
VH: EVQLVESGGGLVQPGGSLRLSCAASGFTFGGFGMHWVRQAPGKGLEWVSYITGDSSTIYYADRVRGRFTISRDNAKNSLYLQMNSLRAEDTAVYYCVRGPPGTWAYWGQGTLVTVSS
VL: EIVLTQSPATLSLSPGERATLSCRASESVEFYGTTLVQWYQQKPGQAPRLLIYGASNVESGIPARFSGSGSGTDFTLTISSLEPEDFAVYFCQQIRKVPWTFGQGTKVEIKR
For B14, the binding entry in assay [3], in assay [4] and in assay [2] was “binds” throughout.

B15: chimeric anti-human PD-L1 antibody Mab 3-18 (antibody, human IgG1, kappa, V domains shown)
VH: EVHLQESGPSLVKPSQTLSLTCSVTGDSITSGYWNWIRQFPGNKLEYMGYVSYSGSTYYNPSLKSRISITRDTSKNQYYLQLSSVTTEDTATYYCANYYGDNWPFPLDYWGQGTSVIVSS
VL: DIVMTQAAPSVPVTPGESVSISCRSNKSLLHSNGNTYLYWFLQRPGQSPQLLIYRMSNLASGVPDRFSGSGSGTAFTLTISRVEAEDVGVYYCMQHLEYPFTFGGGTKLEIER
notes: as for B1
Regarding B15, the binding result in assay [1] was “binds”.

B16: chimeric anti-human PD-L1 antibody Mab 3-17 (antibody, human IgG1, kappa, V domains shown)
VH: EVHLQESGPSLVKPSQTLSLTCSVTGDSITSGYWNWIRQFPGNKLEYMGYVSYSGSTYYNPSLKSRISITRDTSKNQYYLQLSSVTTEDTATYYCANYYGDNWPFPLDYWGQGTSVIVSS
VL: DIVMTQSPATLSVTPGDRVSLSCRASQSINGNLHWFQQKSHESPRLLIKYASQSISGIPSRFSGSGSGSDFTLRINSVEPEDVGVYYCQNGHGFPYTFGGGTKLEIKR
notes: as for B1
With B16, in assay [1], the binding entry is “binds”.

B17: chimeric anti-human PD-L1 antibody Mab 3-16 (antibody, human IgG1, kappa, V domains shown)
VH: DVQLVESGGGLVQPGGSRKLSCAASGFTFGGFGMHWVRQAPEKGLEWVAYITGDSSTIYYADRVRGRFTISRDNPRNILFLQMTSLGSEDTAMYYCVRGPPGTWAYWGQGTLVTVSA
VL: DIVLTQSPASLAVSLGQRATFSCRASESVEFYGTTLVQWYQQRPGQPPKLLIYGASNVESGVPARFTGSGSGTDFSLNIHPVEEDDIAMYFCQQIRKVPWTFGGGTKLEIRR
notes: Mouse variable domains on human IgG1 / kappa constant regions; also called parent antibody Mab 3-16
As to B17, the binding entry in assay [3], in assay [1] and in assay [5] was “binds” throughout.

B18: chimeric anti-human PD-L1 antibody Mab 3-14 (antibody, human IgG1, kappa, V domains shown)
VH: QVQLQQSGAELVKPGTSVKLSCKASGYTFSMYYMFWVKQRPGQGLEWIGQINPSNGRTNFNEKFKSKATLTVDKSSTTAYMQLSSLTSEDSAVYYCTREISYDEFAYWGQGTLVTVSA
VL: DVVMTQTPLSLPVSLGDQASISCRSSQSLVHSNGNTYLHWYLQKPGQSPKLLIYRVSNRFSGVPDRFSGSGSGTDFTLKISRVEAEDLGIYFCSQSAHLPYTFGGGTKLEIKR
notes: as for B1
For the molecule B18, the binding entry in assay [1] is listed as “binds”.

B19: chimeric anti-human PD-L1 antibody Mab 2-04 (antibody, human IgG1, kappa, V domains shown)
VH: QVQLQQSGAELARPGASVKMSCKASGYTFTDYAMHWIKQRPGQGLEWIGFIIPSGDHTDYNQNFKDRATLTADKSSNTAYMQLTSLTPDDSAVYFCARGHGFHLYVMDYWGQGTSVTVSS
VL: DIVMTQSPATLSVTPGDGVSLSCRASQSIADYLHWYQQKSHESPRLLIKYASQSISGIPSRFSGSGSGSDFTLSISSVEPEDVGVYFCQNGHSFPPTFGTGTKLELKR
notes: as for B1
Take B19: the binding entry in assay [1] is given as “binds”.

The record behind these values is patent US20260015423A1 (STAIDSON BIOPHARMA, published 2026).
